Source: patent EP4590718A1
These are yes or no findings as the source states them, for the method shown. Some entries that bind do so weakly or less than the wild type. Tags and fused reporters may be left off the sequences shown.

Target: T1, FLAG tag
T1 sequence (peptide): DYKDDDDK
Experiment: Biacore (SPR)

binding: binds
B1: parental mouse antibody (mouse VH/VL in the context of human constant regions) (antibody, V domains shown)
VH: QVQLQQSAGELARPGASVKMSCKASGYSFTTYTIHWVKQRPGQGLEWIGYINPSSGYAAYNQNFKDETTLTADKSSSTAYMQLSSLTSEDSAVYYCAREKFYGYDYWGQGTTLTVSS
VL: DVLMTQLPLSLPVSLGDQASISCRSSQSIVHRNGNTYLEWYLLKPGQSPKLLIYKVSNRFSGVPDRFSGSGSGTDFTLKISRVEAEDLGVYYCFQGSHVPYTFGGGTKLEIK
